These are yes or no findings as the source states them, for the method shown. Binding seen in cells or lysates may run through a third protein. Some binding calls cover weakened binding; strength is not graded here. Where a sequence is shown, tags or fusion partners need not be part of it.
Molecular target: T1, Cdc55 (regulatory subunit of the PP2A-Cdc55 phosphatase), Pk-tagged (S. cerevisiae) (UniProt Q00362)
T1 sequence: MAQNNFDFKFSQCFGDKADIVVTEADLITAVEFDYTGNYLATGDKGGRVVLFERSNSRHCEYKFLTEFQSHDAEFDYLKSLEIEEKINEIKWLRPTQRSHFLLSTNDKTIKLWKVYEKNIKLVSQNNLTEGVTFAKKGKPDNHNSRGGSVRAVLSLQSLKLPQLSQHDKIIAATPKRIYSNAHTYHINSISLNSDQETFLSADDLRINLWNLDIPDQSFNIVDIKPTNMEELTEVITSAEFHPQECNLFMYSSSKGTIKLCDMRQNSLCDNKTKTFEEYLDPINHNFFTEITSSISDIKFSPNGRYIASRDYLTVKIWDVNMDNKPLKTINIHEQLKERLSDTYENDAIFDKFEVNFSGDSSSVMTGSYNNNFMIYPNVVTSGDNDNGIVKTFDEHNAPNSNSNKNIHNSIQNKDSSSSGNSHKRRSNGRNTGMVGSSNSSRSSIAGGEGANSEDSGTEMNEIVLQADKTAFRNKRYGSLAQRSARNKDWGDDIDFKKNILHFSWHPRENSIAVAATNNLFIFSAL
Experiment: co-IP; anti-Pk (SV5-Pk1) immunoprecipitation of Pk-Cdc55 on protein A Dynabeads from yeast extracts prepared at metaphase, anaphase and cytokinesis (Cdc20 depletion and re-addition); washes at incremental KOAc; Chs2 detected by western blot; strain Y1318 without the Pk tag as negative control

- binding: binds
B1: Chs2 (chitin synthase II) (protein, UniProt P14180 1-963)
chain: MTRNPFMVEPSNGSPNRRGASNLSKFYANANSNSRWANPSEESLEDSYDQSNVFQGLPASPSRAALRYSPDRRHRTQFYRDSAHNSPVAPNRYAANLQESPKRAGEAVIHLSEGSNLYPRDNADLPVDPYHLSPQQQPSNNLFGSGRLYSQSSKYTMSTTSTTAPSLAEADDEKEKYLTSTTSYDDQSTIFSADTFNETKFELNHPTRQQYVRRANSESKRRMVSDLPPPSKKKALLKLDNPIPKGLLDTLPRRNSPEFTEMRYTACTVEPDDFLREGYTLRFAEMNRECQIAICITMYNEDKYSLARTIHSIMKNVAHLCKREKSHVWGPNGWKKVSVILISDGRAKVNQGSLDYLAALGVYQEDMAKASVNGDPVKAHIFELTTQVSINADLDYVSKDIVPVQLVFCLKEENKKKINSHRWLFNAFCPVLQPTVVTLVDVGTRLNNTAIYRLWKVFDMDSNVAGAAGQIKTMKGKWGLKLFNPLVASQNFEYKISNILDKPLESVFGYISVLPGALSAYRYRALKNHEDGTGPLRSYFLGETQEGRDHDVFTANMYLAEDRILCWELVAKRDAKWVLKYVKEATGETDVPEDVSEFISQRRRWLNGAMFAAIYAQLHFYQIWKTKHSVVRKFFLHVEFLYQFIQMLFSWFSIANFVLTFYYLAGSMNLVIKHGEALFIFFKYLIFCDLASLFIISMGNRPQGAKHLFITSMVILSICATYSLICGFVFAFKSLASGTESHKIFVDIVISLLSTYGLYFFSSLMYLDPWHMFTSSIQYFLTLPAFTCTLQIFAFCNTHDVSWGTKGSTQESKQLSKAIVVQGPDGKQIVETDWPQEVDKKFLEIKSRLKEPEFEESSGNEKQSKNDYYRDIRTRIVMIWMLSNLILIMSIIQVFTPQDTDNGYLIFILWSVAALAAFRVVGSMAFLFMKYLRIIVSYRNKVEGSGSWEVSKLDLPNVFHKKG
